PubChem BioAssay AID1487 (National Center for Advancing Translational Sciences (NCATS), 2009)
The list shows a part of the results. These are further read-outs of the screen, such as a control signal, another cell line or another target. No call is given for them. The list favours compounds with an active or inconclusive main result. The note in brackets gives the kind of curve behind each potency; many fits are weak.

Experiment: qHTS Assay for Modulators of Lamin A Splicing
Conditions: HeLa LMNA splicing GFP/RFP minigene ratio, 48 h
Procedure, shortened: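 Read-out is the ratio of GFP to DsRed2 object intensity, acquired by 488 nm laser-scanning cytometry on HeLa lamin A-EGFP minigene reporter cells. Compound incubation 48 hrs at 37 °C in Opti-MEM with 2% FBS; DMSO 0.5% final.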

[1] = measured here: GFP splicing reporter channel
[2] = measured here: RFP viability control channel

SMILES	AC50 [1]	AC50 [2]
C[C@@H]1O[C@H](O[C@@H]2[C@H](C)O[C@H](O[C@@H]3[C@H](C)O[C@H](O[C@H]4CC[C@]5(C)[C@@H](CC[C@@H]6[C@H]5C[C@@H](O)[C@]5(C)[C@@H](C7=CC(=O)OC7)CC[C@]65O)C4)C[C@@H]3O)C[C@@H]2O)C[C@H](O)[C@@H]1O	0.251 µM [falling, full curve]	0.02 µM [falling, full curve]
CCOC(=O)c1sc(NC(=O)CCN2CCCCCC2)c(C(=O)OCC)c1C	0.126 µM [rising, full curve, poor fit]	0.1 µM [rising, full curve]
COc1ccccc1CNc1ncncc1-c1ccccc1OC	7.08 µM [falling, partial curve]	
CCOc1ccc(S(=O)(=O)Nc2ccc3c(c2)OCO3)c2cccnc12	14.1 µM [rising, single point]	15.8 µM [rising, partial curve, poor fit]
CCN(CC)CC(=O)Nc1sc(C)c(C)c1C(=O)c1ccc(C)cc1	12.6 µM [falling, partial curve]	
CC#C[C@@]1(O)CC[C@H]2[C@@H]3CCC4=CC(=O)CCC4=C3[C@H](c3ccc(N(C)C)cc3)C[C@]21C	5.62 µM [falling, partial curve, poor fit]	4.47 µM [falling, partial curve]
COc1cccc(CNC(=O)c2ccc3c(c2)N(Cc2ccc(F)cc2Cl)C(=O)c2ccccc2S3)c1		1.12 µM [falling, single point]
COc1ccccc1N1CCN(Cc2cc(Br)c(O)c3ncccc23)CC1		2.82 µM [rising, full curve]
O=C(NCCN1CCOCC1)c1ccc(Cl)c(S(=O)(=O)N2CCCCCC2)c1	12.6 µM [rising, partial curve]	15.8 µM [rising, partial curve]
COc1c(O)cc2c(c1O)[C@@H]1O[C@@H](CO)[C@@H](O)[C@@H](O)[C@@H]1OC2=O	0.00251 µM [falling, full curve, poor fit]	0.00251 µM [falling, full curve, poor fit]
C=CCc1ccccc1OCC(=O)N/N=C/c1ccc(OC(C)=O)cc1OC(C)=O	7.08 µM [rising, partial curve, poor fit]	12.6 µM [rising, partial curve]
CCOCCCNC(=O)CCCC1=NS(=O)(=O)c2ccccc2N1	0.794 µM [falling, single point]	0.0562 µM [falling, full curve, poor fit]
CCOC(=O)CSc1nc2ccc(N3CCOCC3)cc2c(=O)n1Cc1ccc2c(c1)OCO2	17.8 µM [rising, partial curve, poor fit]	
CCOc1cc(S(=O)(=O)N2CCN(Cc3ccccc3)CC2)ccc1Br	7.08 µM [rising, full curve]	14.1 µM [rising, partial curve]
C=CCN(CC=C)S(=O)(=O)c1ccc(C(=O)Nc2nnc(CSC)o2)cc1	0.112 µM [falling, full curve]	
Cc1ccccc1/C=C/C1=NCCN1	17.8 µM [falling, partial curve]	12.6 µM [rising, partial curve]
COc1ccc(Cl)cc1NC(=O)CSc1nnc2[nH]c(=O)cc(-c3ccccc3)n12	20 µM [falling, single point]	
Cc1ccc2[nH]c(=O)c3cc(C(=O)N(CCCOC(C)C)Cc4ccco4)sc3c2c1	15.8 µM [rising, single point]	17.8 µM [rising, single point]
COc1ccc(C2=NCCc3cc(OC)c(OC)cc32)cc1		0.178 µM [rising, full curve, poor fit]
C/C(=N\NC(=O)COc1ccc(C(C)(C)C)cc1)c1ccc2c(c1)OCCO2		31.6 µM [rising, single point]
Cc1cccc(C(=O)NC(=O)Nc2c(C)cc(C)nc2C)c1	0.00316 µM [falling, full curve, poor fit]	0.00316 µM [falling, full curve, poor fit]
COc1ccccc1N1CCN(C(=O)c2cc(-c3cccc(Cl)c3)on2)CC1	35.5 µM [rising, single point]	
COC(=O)c1c(-c2cccs2)csc1NC(=O)c1cccnc1	11.2 µM [rising, partial curve]	11.2 µM [rising, single point]
CN1CCN(S(=O)(=O)c2cccc(C(=O)Nc3sc4c(c3C(N)=O)CCCC4)c2)CC1	11.2 µM [rising, partial curve]	
Cc1ccc(/C=C/C(=O)NC2=NCCS2)cc1	0.02 µM [falling, full curve, poor fit]	

Retrieved one by one from the entries so far (two):
SMILES	AC50 [1]	AC50 [2]
C=CCN(CC=C)S(=O)(=O)c1ccc(C(=O)Nc2nnc(CSC)o2)cc1	0.112 µM [falling, full curve]	
CCOc1ccc(S(=O)(=O)Nc2ccc3c(c2)OCO3)c2cccnc12	14.1 µM [rising, single point]	15.8 µM [rising, partial curve, poor fit]

The list continues:

SMILES	AC50 [1]	AC50 [2]
Cc1cccc2sc(NC(=O)c3ccc(NS(=O)(=O)c4cccs4)cc3)nc12	0.631 µM [rising, full curve, poor fit]	14.1 µM [rising, partial curve]
COc1cccc(OCCc2c(C)n[nH]c2C)c1	14.1 µM [rising, partial curve]	17.8 µM [rising, single point]
COc1ccc(N)cc1-n1c(C)ccc1C		17.8 µM [falling, single point]
CS(=O)(=O)Oc1ccc2c(c1)O/C(=C\C=C\c1ccccc1)C2=O	3.98 µM [rising, full curve, poor fit]	6.31 µM [rising, single point]
CCOC(=O)c1c(C)[nH]c(C(=O)COC(=O)c2cnc(C)cn2)c1C		12.6 µM [falling, partial curve, poor fit]
COc1cccc(N2CCN(C(=O)c3nc(-c4ccc(Cl)cc4)n4c3CCCCC4)CC2)c1		15.8 µM [rising, single point]
Cc1nc(N2CCCC2)ncc1C(=O)NCc1ccccc1Cl	0.891 µM [rising, full curve, poor fit]	
CCc1nnc2n1N(C(C)=O)C(c1ccc(C(C)(C)C)cc1)=C(C(C)=O)S2	31.6 µM [falling, single point]	35.5 µM [falling, single point]
COC(=O)c1ccc(NC(=O)C2CCN(S(=O)(=O)c3ccc4c(c3)CCCN4C(C)=O)CC2)cc1	12.6 µM [falling, partial curve, poor fit]	0.891 µM [falling, full curve, poor fit]
CCC(=O)Nc1ccccc1C(=O)OC(c1ccccc1)c1ccccc1		20 µM [rising, single point]
O=C(Nc1ccccc1)C1CCN(C(=O)c2ccc([N+](=O)[O-])cc2)CC1		0.501 µM [falling, single point]
COc1ccc(-c2nc3ccccc3c(C(=O)Nc3ccc(S(=O)(=O)Nc4cc(C)on4)cc3)c2C)cc1		11.2 µM [rising, partial curve]
CCCc1nnc(NC(=O)CCC(=O)N2CCN(CCOc3ccc(C)cc3)CC2)s1	5.01 µM [rising, full curve, poor fit]	7.08 µM [rising, full curve]
O=C(Nc1cccc(S(=O)(=O)N2CCCCCC2)c1)c1ccc2c(c1)OCO2	11.2 µM [rising, partial curve, poor fit]	15.8 µM [rising, partial curve]
CCOc1cc(NC(=O)c2ccco2)c(OCC)cc1NC(=O)c1cc(OC)c(OC)c(OC)c1	5.62 µM [rising, partial curve]	
Cc1nc(-n2cc(F)c(=O)[nH]c2=O)c2nc(C)oc2n1		12.6 µM [rising, single point]
COc1ccc(/C=C2\CCC(C3CCCC3)C2=O)cc1Cn1cccn1 (centres undefined)	35.5 µM [rising, single point]	
Cc1cccc(NC(=O)CSc2nnc(-c3cc(C)n(-c4ccccc4)c3C)o2)c1C		12.6 µM [rising, single point]
CCc1ccc(CNC(=O)c2cnc3sc(N(CC)CC)nn3c2=O)cc1	0.0562 µM [falling, full curve, poor fit]	0.2 µM [falling, full curve]
CN(c1ccc([N+](=O)[O-])cc1C(N)=O)C1CCCCC1	11.2 µM [rising, partial curve, poor fit]	
COc1ccccc1NC(=O)CC1SC(=N)N(c2ccccc2)C1=O (centres undefined)	0.0112 µM [rising, full curve, poor fit]	
Cc1ccc(Cl)cc1N1CCN(S(=O)(=O)c2ccc3c(c2)CC(=O)N3C)CC1	22.4 µM [falling, partial curve, poor fit]	10 µM [falling, partial curve]
CCOc1ccc(CN2CCN(S(=O)(=O)c3ccc(NC(C)=O)cc3)CC2)cc1OC	12.6 µM [rising, single point]	15.8 µM [rising, single point]
Cc1cc(Nc2cccc(C(F)(F)F)c2)nc2ccc(NC(=O)c3cncc(Br)c3)cc12	5.01 µM [falling, partial curve]	5.01 µM [falling, partial curve]
Cc1cc(C)c(NC(=O)c2cc3c(nc4sccn43)s2)c(C)c1		35.5 µM [rising, single point]

Another view of some results above:

| SMILES | AC50 [1] | AC50 [2] |
| --- | --- | --- |
| CCc1nnc2n1N(C(C)=O)C(c1ccc(C(C)(C)C)cc1)=C(C(C)=O)S2 | 31.6 µM [falling, single point] | 35.5 µM [falling, single point] |
| COC(=O)c1ccc(NC(=O)C2CCN(S(=O)(=O)c3ccc4c(c3)CCCN4C(C)=O)CC2)cc1 | 12.6 µM [falling, partial curve, poor fit] | 0.891 µM [falling, full curve, poor fit] |
